Data published in the supplement of paper PMC10849652.
Some of the results follow. Residues, ends and D or L forms follow the SMILES beside them. *: point of attachment. Cbz = O=C(OCc1ccccc1)*

The chains behind the UniProt entries cited, without tags or fusion partners. Where a name states a change or a piece, a line headed by the entry shows the natural chain unless it says otherwise.
UniProt Q53S58: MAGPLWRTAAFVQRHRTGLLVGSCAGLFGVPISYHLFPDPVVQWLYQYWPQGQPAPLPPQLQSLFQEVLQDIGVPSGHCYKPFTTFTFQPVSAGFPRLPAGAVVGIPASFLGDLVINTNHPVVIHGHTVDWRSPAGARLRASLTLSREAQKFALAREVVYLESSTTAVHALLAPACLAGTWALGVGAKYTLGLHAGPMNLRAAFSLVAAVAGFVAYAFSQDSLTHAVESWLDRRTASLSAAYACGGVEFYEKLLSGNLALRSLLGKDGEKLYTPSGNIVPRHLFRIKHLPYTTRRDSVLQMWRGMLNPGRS
UniProt Q6ZXV5: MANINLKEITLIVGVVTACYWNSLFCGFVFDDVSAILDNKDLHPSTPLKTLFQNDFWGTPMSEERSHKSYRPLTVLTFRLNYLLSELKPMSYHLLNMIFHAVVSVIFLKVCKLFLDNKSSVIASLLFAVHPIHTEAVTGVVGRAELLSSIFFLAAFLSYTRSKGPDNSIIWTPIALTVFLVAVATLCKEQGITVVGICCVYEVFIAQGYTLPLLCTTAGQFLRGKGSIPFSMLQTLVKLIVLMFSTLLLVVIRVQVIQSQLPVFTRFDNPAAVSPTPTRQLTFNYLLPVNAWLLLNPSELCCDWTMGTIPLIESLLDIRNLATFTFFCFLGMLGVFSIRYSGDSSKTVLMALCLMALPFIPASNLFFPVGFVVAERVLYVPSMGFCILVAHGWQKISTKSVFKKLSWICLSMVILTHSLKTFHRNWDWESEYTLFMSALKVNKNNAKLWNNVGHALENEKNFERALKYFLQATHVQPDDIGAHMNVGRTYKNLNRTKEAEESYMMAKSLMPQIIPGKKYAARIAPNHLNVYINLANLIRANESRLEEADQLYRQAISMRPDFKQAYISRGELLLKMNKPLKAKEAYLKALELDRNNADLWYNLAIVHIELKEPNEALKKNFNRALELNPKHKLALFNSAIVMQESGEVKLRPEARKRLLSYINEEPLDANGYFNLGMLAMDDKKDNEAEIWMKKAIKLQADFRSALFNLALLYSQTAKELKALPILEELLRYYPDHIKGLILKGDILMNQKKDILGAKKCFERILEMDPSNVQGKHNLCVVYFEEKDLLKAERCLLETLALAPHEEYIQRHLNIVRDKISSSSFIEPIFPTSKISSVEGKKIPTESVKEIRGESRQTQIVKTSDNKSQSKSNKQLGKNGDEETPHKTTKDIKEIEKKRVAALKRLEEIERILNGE
UniProt Q5T3F8: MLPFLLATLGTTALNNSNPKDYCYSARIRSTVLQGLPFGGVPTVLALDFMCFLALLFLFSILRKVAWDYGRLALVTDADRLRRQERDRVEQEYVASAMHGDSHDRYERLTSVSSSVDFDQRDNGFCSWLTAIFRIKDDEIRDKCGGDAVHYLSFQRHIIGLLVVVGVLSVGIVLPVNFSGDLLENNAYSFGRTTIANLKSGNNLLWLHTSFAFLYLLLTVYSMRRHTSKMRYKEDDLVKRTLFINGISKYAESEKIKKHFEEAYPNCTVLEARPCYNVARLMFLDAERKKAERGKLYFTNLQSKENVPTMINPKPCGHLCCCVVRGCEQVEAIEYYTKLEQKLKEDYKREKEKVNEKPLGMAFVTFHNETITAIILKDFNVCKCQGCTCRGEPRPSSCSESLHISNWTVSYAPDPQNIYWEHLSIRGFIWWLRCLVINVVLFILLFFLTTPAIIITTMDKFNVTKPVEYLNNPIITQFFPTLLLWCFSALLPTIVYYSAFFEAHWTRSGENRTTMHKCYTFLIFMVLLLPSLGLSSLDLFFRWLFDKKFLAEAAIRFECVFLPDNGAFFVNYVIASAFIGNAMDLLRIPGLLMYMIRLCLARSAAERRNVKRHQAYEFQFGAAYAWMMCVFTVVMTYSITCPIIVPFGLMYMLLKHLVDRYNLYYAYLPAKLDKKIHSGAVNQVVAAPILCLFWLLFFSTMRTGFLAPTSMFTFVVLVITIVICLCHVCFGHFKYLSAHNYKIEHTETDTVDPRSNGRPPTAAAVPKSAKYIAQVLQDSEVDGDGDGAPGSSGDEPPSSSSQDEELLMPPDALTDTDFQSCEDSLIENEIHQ
UniProt P63313: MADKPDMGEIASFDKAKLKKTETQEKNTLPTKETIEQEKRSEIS
UniProt Q9NQ34: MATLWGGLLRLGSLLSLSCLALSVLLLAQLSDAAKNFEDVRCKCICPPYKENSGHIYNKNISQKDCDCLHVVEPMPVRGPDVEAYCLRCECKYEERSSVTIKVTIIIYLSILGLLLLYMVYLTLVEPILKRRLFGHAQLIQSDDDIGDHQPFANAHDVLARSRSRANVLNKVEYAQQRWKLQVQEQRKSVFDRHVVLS
UniProt Q9UKI8: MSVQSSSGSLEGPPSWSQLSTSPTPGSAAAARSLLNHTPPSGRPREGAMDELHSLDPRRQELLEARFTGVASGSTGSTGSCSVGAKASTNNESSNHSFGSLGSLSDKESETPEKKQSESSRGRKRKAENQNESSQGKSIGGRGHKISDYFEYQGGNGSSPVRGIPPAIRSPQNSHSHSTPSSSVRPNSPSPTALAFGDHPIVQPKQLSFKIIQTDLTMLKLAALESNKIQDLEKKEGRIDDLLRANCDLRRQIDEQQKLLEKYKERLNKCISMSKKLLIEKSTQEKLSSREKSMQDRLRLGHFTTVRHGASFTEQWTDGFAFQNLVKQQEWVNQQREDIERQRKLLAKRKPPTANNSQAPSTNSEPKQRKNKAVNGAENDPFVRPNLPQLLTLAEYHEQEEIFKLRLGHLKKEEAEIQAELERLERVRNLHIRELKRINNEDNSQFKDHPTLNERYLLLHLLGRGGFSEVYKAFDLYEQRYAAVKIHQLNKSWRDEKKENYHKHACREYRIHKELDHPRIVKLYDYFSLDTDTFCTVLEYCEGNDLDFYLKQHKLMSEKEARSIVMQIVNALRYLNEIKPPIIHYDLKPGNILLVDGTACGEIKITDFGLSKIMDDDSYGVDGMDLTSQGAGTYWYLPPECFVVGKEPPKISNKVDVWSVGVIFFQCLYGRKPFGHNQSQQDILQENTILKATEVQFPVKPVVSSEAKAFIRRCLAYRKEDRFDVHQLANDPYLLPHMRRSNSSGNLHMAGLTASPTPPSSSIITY
UniProt Q96HV5: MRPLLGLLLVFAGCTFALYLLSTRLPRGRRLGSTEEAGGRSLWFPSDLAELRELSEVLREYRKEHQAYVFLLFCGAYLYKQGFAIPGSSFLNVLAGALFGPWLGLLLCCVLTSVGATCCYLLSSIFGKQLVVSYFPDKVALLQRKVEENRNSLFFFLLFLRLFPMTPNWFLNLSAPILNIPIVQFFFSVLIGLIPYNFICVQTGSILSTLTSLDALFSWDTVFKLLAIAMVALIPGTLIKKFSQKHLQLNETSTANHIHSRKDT
UniProt P42167: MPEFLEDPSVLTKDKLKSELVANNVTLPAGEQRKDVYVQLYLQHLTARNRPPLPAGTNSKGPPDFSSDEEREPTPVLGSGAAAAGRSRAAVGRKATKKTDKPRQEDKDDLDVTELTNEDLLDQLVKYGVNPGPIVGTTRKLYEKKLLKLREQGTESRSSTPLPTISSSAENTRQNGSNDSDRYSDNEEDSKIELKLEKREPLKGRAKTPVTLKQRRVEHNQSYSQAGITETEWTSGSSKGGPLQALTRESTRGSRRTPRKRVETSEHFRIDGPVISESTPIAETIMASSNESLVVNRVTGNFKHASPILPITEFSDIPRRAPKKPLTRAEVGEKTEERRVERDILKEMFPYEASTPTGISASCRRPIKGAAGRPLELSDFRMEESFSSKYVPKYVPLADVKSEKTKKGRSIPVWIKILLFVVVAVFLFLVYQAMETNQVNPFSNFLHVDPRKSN

Tests used:
Test in all cases: log2 fold change, soluble protein after heating vs DMSO (PISA); higher = thermal stabilisation; K562 cells, 10 uM, 30 min; active = over 0.2 and 3.5 SD of the protein, either way, in both replicates (recomputed)
IRAK-1-4 Inhibitor I = compound: C1COCCN1CCN2C3=CC=CC=C3N=C2NC(=O)C4=CC(=CC=C4)[N+](=O)[O-] [IRAK-1-4 Inhibitor I]
How it was run: (§1)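 For each measurement, 10 μM compound was applied for 30 min to K562 cells at 2×10^6 cells/mL. Aliquots were heated for 3 min across 48°C-58°C, pooled, and extracted in PBS with 0.5% NP-40 at 4°C; the supernatant after 21,000xg for 90 min was soluble protein. This was quantified by TMTpro 16plex LC-MS/MS with channel sums equalised, and thermal stability was reported relative to control samples from duplicates, on a log2 fold-change scale.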

ibrutinib = compound: C=CC(=O)N1CCC[C@@H](n2nc(-c3ccc(Oc4ccccc4)cc3)c3c(N)ncnc32)C1 [ibrutinib]
How it was run: as §1

[1] = compound: CC(=O)c1cnc2ccc(-c3cc(Cl)c(O)c(Cl)c3)nc2c1N[C@H]1CC[C@H](CN(C)C)CC1
How it was run: as §1

ralimetinib = compound: CC(C)(C)Cn1c(N)nc2ccc(-c3[nH]c(C(C)(C)C)nc3-c3ccc(F)cc3)nc21 [ralimetinib]
How it was run: as §1

[2] = compound: CC(C)(O)CC(=O)NCCn1ccc2ncnc(Nc3ccc(Oc4cccc(C(F)(F)F)c4)c(Cl)c3)c21
How it was run: as §1

[3] = compound: CC(C)C1=C2N=C(C=C(N2N=C1)NCC3=CC=CC=C3)NCCCCCCN
How it was run: as §1

[4] = compound: CC(C)C[C@@H](C=O)NC(=O)[C@H](CC(C)C)NC(=O)[C@H](CC(C)C)NC(=O)OCc1ccccc1
How it was run: as §1

pinometostat = compound: CC(C)N(C[C@H]1O[C@@H](n2cnc3c(N)ncnc32)[C@H](O)[C@@H]1O)[C@H]1C[C@@H](CCc2nc3cc(C(C)(C)C)ccc3[nH]2)C1 [pinometostat]
How it was run: as §1

[5] = compound: CC1=C(C2=C(C=C1)C(=O)C3=CC=CC=C3N2CCCN)C
How it was run: as §1

[6] = compound: CC1=C(C=C(C=C1)NC(=O)C2=CC(=CC=C2)C(C)(C)C#N)NC3=CC4=C(C=C3)N=CN(C4=O)C
How it was run: as §1

[7] = compound: CC1=C(C=C(C=C1)NC(=O)C2=CC(=CC=C2)N(C)C)NC(=O)C3=CC=C(C=C3)O
How it was run: as §1

[8] = compound: CC1=CC=C(C=C1)SC2=C3C=C(SC3=CN=C2)C(=O)N
How it was run: as §1

[9] = compound: CC1=NC(=CC=C1)C2=C(N=C(N2)C(C)(C)C)C3=CC4=NC=CN=C4C=C3
How it was run: as §1

Nexturastat A = compound: CCCCN(Cc1ccc(C(=O)NO)cc1)C(=O)Nc1ccccc1 [Nexturastat A]
How it was run: as §1

vemurafenib = compound: CCCS(=O)(=O)Nc1ccc(F)c(C(=O)c2c[nH]c3ncc(-c4ccc(Cl)cc4)cc23)c1F [vemurafenib]
How it was run: as §1

[10] = compound: CCCS(=O)(=O)Nc1ccc(F)c(C(=O)c2c[nH]c3ncc(Cl)cc23)c1F
How it was run: as §1

[11] = compound: CCCc1cc(C)[nH]c(=O)c1CNC(=O)c1cc(-c2ccnc(N3CCN(C)CC3)c2)cc2c1cnn2C(C)C
How it was run: as §1

givinostat = compound: CCN(CC)Cc1ccc2cc(COC(=O)Nc3ccc(C(=O)NO)cc3)ccc2c1 [givinostat]
How it was run: as §1

barasertib = compound: CCN(CCCOc1ccc2c(Nc3cc(CC(=O)Nc4cccc(F)c4)[nH]n3)ncnc2c1)CCOP(=O)(O)O [barasertib]
How it was run: as §1

[12] = compound: CC1=C(C(CC(=O)N1)C2=CC=C(C=C2)C(F)(F)F)C(=O)NC3=C(C=C4C(=C3)C=NN4)F
How it was run: as §1

Measured: log2 fold change

TMEM177 (UniProt Q53S58)
inactive: IRAK-1-4 Inhibitor I 0.06 | ibrutinib 0.079 | [1] 0.007 | ralimetinib -0.068 | [2] -0.023 | [3] -0.131 | [4] 0.045 | pinometostat -0.02 | [5] 0.028 | [6] 0.043 | [7] 0.045 | [8] -0.008 | [9] 0.048 | Nexturastat A -0.092 | vemurafenib 0.05 | [10] 0.05 | [11] -0.038 | givinostat 0.005 | barasertib -0.019

TMTC3 (UniProt Q6ZXV5)
inactive: IRAK-1-4 Inhibitor I 0.007 | ibrutinib -0.033 | [1] -0.007 | ralimetinib 0 | [2] 0.022 | [3] -0.218 | [4] 0.028 | pinometostat -0.019 | [5] 0.018 | [6] -0.05 | [7] -0.009 | [8] 0.019 | [9] 0.007 | Nexturastat A 0.067 | vemurafenib -0.052 | [10] 0.013 | [11] -0.013 | givinostat -0.032 | barasertib 0.032

TMEM63B (UniProt Q5T3F8)
inactive: IRAK-1-4 Inhibitor I -0.01 | ibrutinib -0.055 | [1] -0.002 | ralimetinib -0.034 | [2] 0.011 | [3] -0.157 | [4] -0.01 | pinometostat 0.041 | [5] 0.054 | [6] 0.095 | [7] 0.014 | [8] 0.006 | [9] 0.004 | Nexturastat A 0.051 | vemurafenib 0.009 | [10] -0.011 | [11] -0.044 | givinostat 0.014 | barasertib -0.038

TMSB10 (UniProt P63313)
inactive: IRAK-1-4 Inhibitor I 0.074 | ibrutinib -0.023 | [1] -0.1 | ralimetinib -0.143 | [2] -0.058 | [3] 0.097 | [4] -0.104 | pinometostat -0.068 | [12] -0.013 | [5] 0.275 | [6] 0.003 | [7] -0.034 | [8] 0.055 | [9] 0.079 | Nexturastat A -0.041 | vemurafenib 0.14 | [10] -0.007 | [11] 0.008 | givinostat -0.071 | barasertib 0.055

TMEM9B (UniProt Q9NQ34)
inactive: IRAK-1-4 Inhibitor I -0.019 | ibrutinib 0.038 | [1] -0.083 | [2] 0.014 | [3] -0.082 | [4] -0.006 | pinometostat 0.015 | [5] 0.038 | [6] -0.068 | [7] 0.042 | [8] 0.105 | [9] 0.01 | Nexturastat A -0.055 | vemurafenib 0.013 | [10] 0.064 | [11] 0.006 | givinostat -0.023 | barasertib -0.015
active: ralimetinib 0.324

TLK1 (UniProt Q9UKI8)
active: [5] 0.218
inactive: IRAK-1-4 Inhibitor I 0.027 | ibrutinib -0.003 | [1] -0.089 | ralimetinib 0.02 | [2] -0.032 | [3] -0.064 | [4] -0.041 | pinometostat -0.041 | [6] 0.062 | [7] -0.009 | [8] 0.018 | [9] 0.011 | Nexturastat A 0.012 | vemurafenib 0.008 | [10] 0.019 | [11] -0.053 | givinostat 0.078 | barasertib 0.079

TMEM41A (UniProt Q96HV5)
inactive: IRAK-1-4 Inhibitor I -0.022 | ibrutinib -0.007 | [1] -0.04 | ralimetinib 0.033 | [2] 0.022 | [3] 0.043 | [4] -0.079 | pinometostat -0.06 | [5] 0.151 | [6] 0.039 | [7] 0.093 | [8] 0.002 | [9] 0.014 | Nexturastat A -0.138 | vemurafenib -0.163 | [10] -0.101 | [11] -0.021 | givinostat -0.043 | barasertib 0.001

TMPO isoform 2 (UniProt P42167)
inactive: IRAK-1-4 Inhibitor I 0.131 | ibrutinib -0.032 | [1] -0.101 | ralimetinib -0.129 | [2] -0.146 | [3] -0.097 | [4] 0.096 | pinometostat 0.124 | [12] -0.004 | [5] -0.039 | [6] -0.091 | [7] -0.062 | [8] 0.027 | [9] -0.023 | Nexturastat A 0.088 | vemurafenib -0.095 | [10] -0.107 | [11] -0.004 | givinostat 0.013 | barasertib 0
